The results in this text go back to publication doi:10.1101/2023.10.10.561655.

One experiment concerns the target T1, Tms1-13myc (yeast) (UniProt Q12116).
T1 sequence: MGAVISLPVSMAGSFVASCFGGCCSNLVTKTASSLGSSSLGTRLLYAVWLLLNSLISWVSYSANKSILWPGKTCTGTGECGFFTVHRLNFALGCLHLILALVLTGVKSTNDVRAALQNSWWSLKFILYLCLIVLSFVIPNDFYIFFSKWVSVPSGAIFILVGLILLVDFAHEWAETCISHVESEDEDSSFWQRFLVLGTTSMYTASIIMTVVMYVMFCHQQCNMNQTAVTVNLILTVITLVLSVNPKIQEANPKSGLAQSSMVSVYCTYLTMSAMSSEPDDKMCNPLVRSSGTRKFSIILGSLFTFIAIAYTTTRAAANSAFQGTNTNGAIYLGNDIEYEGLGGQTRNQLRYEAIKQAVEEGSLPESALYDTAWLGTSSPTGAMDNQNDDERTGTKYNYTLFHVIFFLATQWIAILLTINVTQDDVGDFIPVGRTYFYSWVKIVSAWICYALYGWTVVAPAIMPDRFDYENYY
Briefly: co-IP.

In another experiment the target is T2, sfGFP-Vps55 (yeast) (UniProt P47111).
T2 sequence: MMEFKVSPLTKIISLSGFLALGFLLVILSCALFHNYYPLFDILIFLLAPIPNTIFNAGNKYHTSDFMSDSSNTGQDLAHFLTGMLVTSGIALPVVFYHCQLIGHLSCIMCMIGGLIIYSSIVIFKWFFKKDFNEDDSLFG
Description: co-IP.

These are yes or no findings as the source states them, for the method shown. Binding seen in cells or lysates may run through a third protein. Some results given as binding are weak or reduced against the parent protein; the word gives no strength. Tags and fused reporters may be left off the sequences shown.

B1: Did2 (protein, UniProt P69771 1-204)
chain: MSRNSAAGLENTLFQLKFTSKQLQKQANKASKEEKQETNKLKRALNENEDISRIYASNAIRKKNERLQLLKLASRVDSVASRVQTAVTMRQVSASMGQVCKGMDKALQNMNLQQITMIMDKFEQQFEDLDTSVNVYEDMGVNSDAMLVDNDKVDELMSKVADENGMELKQSAKLDNVPEIKAKEVNVDDEKEDKLAQRLRALRG
On to B1, for which the binding entry with Tms1-13myc (yeast) and with sfGFP-Vps55 (yeast) was “binds” each time.

B2: Snf7 (protein, UniProt P39929 1-240)
chain: MWSSLFGWTSSNAKNKESPTKAIVRLREHINLLSKKQSHLRTQITNQENEARIFLTKGNKVMAKNALKKKKTIEQLLSKVEGTMESMEQQLFSIESANLNLETMRAMQEGAKAMKTIHSGLDIDKVDETMDEIREQVELGDEISDAISRPLITGANEVDEDELDEELDMLAQENANQETSKIVNNNVNAAPISENKVSLPSVPSNKIKQSENSVKDGEEEEDEEDEDEKALRELQAEMGL
On to B2, for which the values for the binding result with Tms1-13myc (yeast) and with sfGFP-Vps55 (yeast) were “binds weakly” and “binds”, respectively.

B3: Vps24 (protein, UniProt P36095 1-224)
chain: MDYIKKAIWGPDPKEQQRRIRSVLRKNGRNIEKSLRELTVLQNKTQQLIKKSAKKNDVRTVRLYAKELYQINKQYDRMYTSRAQLDSVRMKIDEAIRMNTLSNQMADSAGLMREVNSLVRLPQLRNTMIELEKELMKSGIISEMVDDTMESVGDVGEEMDEAVDEEVNKIVEQYTNEKFKNVDQVPTVELAANEEEQEIPDEKVDEEADRMVNEMRERLRALQN
B3: the binding entry with Tms1-13myc (yeast) was “binds weakly”; in the experiment with sfGFP-Vps55 (yeast), “binds”.

B4: Vps2 (protein, UniProt P36108 1-232)
chain: MSLFEWVFGKNVTPQERLKKNQRALERTQRELEREKRKLELQDKKLVSEIKKSAKNGQVAAAKVQAKDLVRTRNYIQKFDNMKAQLQAISLRIQAVRSSDQMTRSMSEATGLLAGMNRTMNLPQLQRISMEFEKQSDLMGQRQEFMDEAIDNVMGDEVDEDEEADEIVNKVLDEIGVDLNSQLQSTPQNLVSNAPIAETAMGIPEPIGAGSEFHGNPDDDLQARLNTLKKQT
On to B4, for which the binding result with Tms1-13myc (yeast) and with sfGFP-Vps55 (yeast) was “binds” in each case.

B5: Mos10 (protein, UniProt Q03390 1-229)
chain: MNRIFGYGNKKSHDQLLQESNQSMNQAQQSLSNRISQLDTQIAQLNFQLQNIQKNLQRSNNKQPSLRKQALKILNKRKQLENMKDSLDSQSWSMTQAQLTNDNLQNTMITINALKQTNNAMKAQYGKINIDKLQDMQDEMLDLIEQGDELQEVLAMNNNSGELDDISDAELDAELDALAQEDFTLPTSENSLGNDMPSYLLGANAPPAFIDEEPNLDTEDKNKALESAQ
Turning to B5, the binding entry with Tms1-13myc (yeast) and with sfGFP-Vps55 (yeast) was “binds weakly” throughout.
